Patent US12208143B2, “Compositions and methods for transport across the blood brain barrier” (OPHIDION INC., priority 2011, dated 2025)
Not every detail of the peptide structures is certain; ends, links or a residue may be inferred. No end group written: not given here.

Tested on: lynx1 mRNA
Assay: siRNA uptake of peptide-lynx1 siRNA complexes into primary neuronal cultures (lynx1 mRNA knock-down, qPCR)
Assay type: cell-based
Conditions: 25 uM peptide + 2.5 uM lynx1 siRNA (siRNA1), poly-D arginine linker, 24 hours, primary cortical mouse neurons, FIG. 8

With “MTTRTYFTPYRMKVRK [lynx1-loop2, MTTRTYFTPYRMKVRK]” the “reduction in lynx1 mRNA compared to no siRNA (Mock)” value was “reduction in lynx1 mRNA was observed”.
